Results reported in paper PMC7865452.
No constants are given. Whether binding was seen depends on the method and setting. In cells and extracts the contact can be indirect. These calls come from enrichment with a bait or labelling near it, and not all partners need be listed.

Amino acid sequences for entries named in this document (tags omitted).
UniProt O75340: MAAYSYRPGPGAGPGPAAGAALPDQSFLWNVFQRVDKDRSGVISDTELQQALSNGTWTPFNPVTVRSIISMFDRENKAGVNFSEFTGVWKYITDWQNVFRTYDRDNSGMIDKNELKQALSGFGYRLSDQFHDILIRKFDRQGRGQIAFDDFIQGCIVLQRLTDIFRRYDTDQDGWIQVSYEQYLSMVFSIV
UniProt O95292: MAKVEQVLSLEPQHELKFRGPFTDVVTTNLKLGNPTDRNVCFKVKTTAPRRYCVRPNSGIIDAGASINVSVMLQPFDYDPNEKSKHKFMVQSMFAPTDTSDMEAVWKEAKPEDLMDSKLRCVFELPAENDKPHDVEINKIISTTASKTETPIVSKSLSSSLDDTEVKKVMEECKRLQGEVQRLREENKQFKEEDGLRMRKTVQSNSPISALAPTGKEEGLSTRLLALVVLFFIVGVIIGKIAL

T1: CDIP1 induced with doxycycline in MCF-7 Tet-On CDIP1 cells (human) (UniProt Q9H305)
T1 sequence: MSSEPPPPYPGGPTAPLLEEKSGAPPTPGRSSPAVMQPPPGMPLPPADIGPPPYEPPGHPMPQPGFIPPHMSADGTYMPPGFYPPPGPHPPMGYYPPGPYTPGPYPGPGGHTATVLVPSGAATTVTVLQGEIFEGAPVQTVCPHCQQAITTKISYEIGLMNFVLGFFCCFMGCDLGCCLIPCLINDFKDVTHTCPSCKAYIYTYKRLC

B1: Peflin, endogenous in MCF-7 Tet-On CDIP1 cells (protein, UniProt Q9UBV8 1-284)
chain: MASYPYRQGCPGAAGQAPGAPPGSYYPGPPNSGGQYGSGLPPGGGYGGPAPGGPYGPPAGGGPYGHPNPGMFPSGTPGGPYGGAAPGGPYGQPPPSSYGAQQPGLYGQGGAPPNVDPEAYSWFQSVDSDHSGYISMKELKQALVNCNWSSFNDETCLMMINMFDKTKSGRIDVYGFSALWKFIQQWKNLFQQYDRDRSGSISYTELQQALSQMGYNLSPQFTQLLVSRYCPRSANPAMQLDRFIQVCTQLQVLTEAFREKDTAVQGNIRLSFEDFVTMTASRML
B2: B-cell-receptor-associated protein 31 (BAP31), endogenous in MCF-7 Tet-On CDIP1 cells (protein, UniProt P51572 1-246)
chain: MSLQWTAVATFLYAEVFVVLLLCIPFISPKRWQKIFKSRLVELLVSYGNTFFVVLIVILVLLVIDAVREIRKYDDVTEKVNLQNNPGAMEHFHMKLFRAQRNLYIAGFSLLLSFLLRRLVTLISQQATLLASNEAFKKQAESASEAAKKYMEENDQLKKGAAVDGGKLDVGNAEVKLEEENRSLKADLQKLKDELASTKQKLEKAENQVLAMRKQSEGLTKEYDRLLEEHAKLQAAVDGPMDKKEE

target: T1, CDIP1 induced with doxycycline in MCF-7 Tet-On CDIP1 cells (human); experiment: affinity purification with mass spectrometry; MCF-7 Tet-On CDIP1 cells treated with DOX (100 ng/mL, 24 h); HKM buffer, 1% CHAPS; antibody against CDIP1, Protein G magnetic beads; in-gel digestion, LC-MS/MS

Question: “ALG-2, endogenous in MCF-7 Tet-On CDIP1 cells (from UniProt O75340 1-191)” was tested. Which binding did it give?
Answer: binds

Question: With “Vesicle-associated membrane protein-associated protein B (VAPB), endogenous in MCF-7 Tet-On CDIP1 cells (from UniProt O95292 1-243)” as the molecule, how does the binding read?
Answer: binds

Question: How did the binding turn out when B1 was run?
Answer: binds

Question: Which binding does the source give for B2 here?
Answer: binds
